The values below come from PMC8990217, “DUX4 is a multifunctional factor priming human embryonic genome activation” (iScience, 2022).

Sequences of proteins named here, by UniProt entry; tags and fusion partners are left off.
UniProt Q96RN5: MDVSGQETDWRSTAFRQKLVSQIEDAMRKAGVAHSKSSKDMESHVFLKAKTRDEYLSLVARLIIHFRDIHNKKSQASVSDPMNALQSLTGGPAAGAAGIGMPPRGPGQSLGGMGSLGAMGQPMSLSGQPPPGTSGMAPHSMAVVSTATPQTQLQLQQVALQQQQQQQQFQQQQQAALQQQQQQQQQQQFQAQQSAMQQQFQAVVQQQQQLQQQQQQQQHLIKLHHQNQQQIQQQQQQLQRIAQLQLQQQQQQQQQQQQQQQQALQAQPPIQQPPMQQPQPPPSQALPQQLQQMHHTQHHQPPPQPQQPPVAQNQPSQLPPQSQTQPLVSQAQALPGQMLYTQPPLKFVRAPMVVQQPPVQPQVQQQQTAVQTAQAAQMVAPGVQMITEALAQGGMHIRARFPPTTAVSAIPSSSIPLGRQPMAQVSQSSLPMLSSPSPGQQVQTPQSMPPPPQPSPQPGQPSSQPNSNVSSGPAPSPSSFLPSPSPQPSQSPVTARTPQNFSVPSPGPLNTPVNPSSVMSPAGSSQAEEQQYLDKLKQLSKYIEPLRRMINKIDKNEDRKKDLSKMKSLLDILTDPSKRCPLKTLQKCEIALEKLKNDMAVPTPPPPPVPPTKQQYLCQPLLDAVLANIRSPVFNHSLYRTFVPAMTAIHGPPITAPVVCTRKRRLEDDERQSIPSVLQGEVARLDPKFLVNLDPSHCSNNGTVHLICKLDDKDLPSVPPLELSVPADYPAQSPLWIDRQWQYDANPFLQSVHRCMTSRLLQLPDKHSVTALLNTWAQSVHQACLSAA

Assay [1] deals with DUX4 with C-terminal MAC-tag (MAC-tag-C-DUX4 WT) (human) (UniProt Q9UBX2). In words: proximity labelling; MAC-tag BioID-MS (transient interactions gathered over 20 h), DUX4-MAC bait in Flp-In T-REx 293 cells, biotin treatment; SAINTexpress BFDR < 0.05; GFP-NLS as negative control.
Assay [2] shares this target. Kind of assay: affinity purification with mass spectrometry; MAC-tag AP-MS (stable interactions), DUX4-MAC bait in Flp-In T-REx 293 cells, tetracycline induction; SAINTexpress BFDR < 0.05; GFP-NLS as negative control.

Results are given in words; binding and its absence hold for the method and conditions named. Binding seen in cells or lysates may run through a third protein. A yes stands for co-enrichment or nearness to the bait. Other partners may have been found.

In the case of “Mediator subunit 15 (MED15), endogenous (from UniProt Q96RN5 1-788)”, the binding result in assay [1] and in assay [2] was “binds” each time.
